Laboratory results as given in PubChem BioAssay AID1794845 (National Center for Advancing Translational Sciences (NCATS), 2023).
Fewer than 10 of roughly 6,900 compounds were called active. The call rests on the fitted dose curve; in most records, active means well fitted curve in the direction sought with a large enough effect; inconclusive means small, poorly fitted or top-dose-only effect, or another doubt; inactive means no such curve, though single readings can be large or run the other way. Some of the results follow.
Further: % of control where 0% means no effect.

Sequences of proteins named here, by UniProt entry; tags and fusion partners are left off. A change or cut given only in a name is not applied to a line headed by its entry.
UniProt C7C422: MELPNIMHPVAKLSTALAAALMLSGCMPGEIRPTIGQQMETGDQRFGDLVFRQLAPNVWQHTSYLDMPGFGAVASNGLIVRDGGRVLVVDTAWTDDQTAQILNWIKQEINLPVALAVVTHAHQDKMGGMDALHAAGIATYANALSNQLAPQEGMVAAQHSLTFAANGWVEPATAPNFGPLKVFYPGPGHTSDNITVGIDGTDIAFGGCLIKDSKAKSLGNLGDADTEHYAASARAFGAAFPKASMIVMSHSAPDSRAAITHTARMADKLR

These compounds were tested against Metallo-beta-lactamase type 2 (Klebsiella pneumoniae) (UniProt C7C422) (assay: qHTS to identify inhibitors of the New Delhi Metallo-beta-lactamase (NDM): primary screen against the NCATS Gemini Collection). Details: NDM-1 enzyme, meropenem hydrolysis, absorbance 300 nm; at 38.4 µM (top of the series) unless noted.
Summary of the method: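 NDM-1 at 2 nM final in 50 mM HEPES pH 7.0, 1 uM ZnSO4, 0.01% Tween20, preincubated >30 min with compound. Meropenem 50 uM final added; absorbance at 300 nm after 30 min.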
In the case of `Cc1cnc2c(C(=O)N3CCCn4nc(C(C)O)cc4C3)cnn2c1` (stereo not given), the activity % (negative = inhibition) is reported as inactive: 8.4%. With `CN(c1ccccc1)c1ccc2ncn(C3CC3)c(=O)c2n1` the activity % (negative = inhibition) was inactive: 44.6% [at 77.1 µM]. In the case of `C[C@]1(O)CCN(C(=O)CCS(=O)(=O)c2ccccc2)C[C@@H]1O`, the activity % (negative = inhibition) is reported as inactive: 0.636%. In the case of `COCCOc1ccnc(-c2noc([C@@H]3CCCN3Cc3ccncc3)n2)c1`, the activity % (negative = inhibition) is reported as inactive: 4.43% [at 57.5 µM]. In the case of `O=C1NCCCCCCN(C(=O)c2ccco2)[C@H]2C[C@H](c3nc(-c4cnccn4)no3)C[C@@H]12`, the activity % (negative = inhibition) is reported as inactive: -8.38%. With `CC(C)CCNC(=O)C1CCCN(C2CCN(CCc3ccccc3)CC2)C1` (stereo not given) the activity % (negative = inhibition) was inactive: -1.79%. `O=C(c1ccccc1OC(F)(F)F)N1CCC(c2n[nH]c(=O)n2-c2ccccc2)CC1` was tested, and the activity % (negative = inhibition) was inactive: 0.752%. `CCCS(=O)(=O)N1C[C@@H]2C(=O)N(CCC3CCN(C(C)C)CC3)C(=O)[C@@H]2C1` was tested, and the activity % (negative = inhibition) was inactive: -0.489%. For `O=C(Cc1ccccn1)NCCNC(=O)c1cccc(-c2ccc(C(F)(F)F)cc2)c1`, the activity % (negative = inhibition) was inactive: 28.6%. `O=C1N(C2CCN(S(=O)(=O)c3cnc[nH]3)CC2)C(c2ccccc2)C12CCCC2` (stereo not given) was tested, and the activity % (negative = inhibition) was inactive: -3.13%. `COc1cccc(NC(=O)C2(C)CCc3cnc(NCc4ccccc4)nc32)c1` (stereo not given) was tested, and the activity % (negative = inhibition) was inactive: 63.2% [at 57.5 µM]. `O=C(N[C@H](c1ccccn1)C1CC(O)C1)c1cc(=O)n(-c2ccccc2)[nH]1` (stereo not given in full) was tested, and the activity % (negative = inhibition) was inactive: 5.44%. With `Cn1nnnc1C1CCCN(C(=O)c2ccc(F)cc2)C1` (stereo not given) the activity % (negative = inhibition) was inactive: 15.3%. In the case of `CC1CCCN1C(=O)c1cc(-c2cnn(C(C)C)c2)nc2cc(F)ccc12` (stereo not given), the activity % (negative = inhibition) is reported as inactive: 8.18%. For `CN(C)C(=O)CN1CCCC(N2CCN(c3cccc(C(F)(F)F)c3)CC2)C1` (stereo not given), the activity % (negative = inhibition) was inactive: 6.25%. For `CN(Cc1ccc(F)cc1)C(=O)c1cn(Cc2ccccc2C(F)(F)F)nn1`, the activity % (negative = inhibition) was inactive: 9.34%. With `CC(C)Oc1cccc(-c2nnc(CCC(=O)NCCc3cccs3)c(=O)[nH]2)c1` the activity % (negative = inhibition) was inactive: 23.7%. In the case of `Cc1ccc(C)c(OCC(=O)N[C@H]2CCOC[C@H]2C2CCOCC2)c1C`, the activity % (negative = inhibition) is reported as inactive: -0.0546%. `Cc1cccc(CN2CC(Oc3cccc(C(=O)NCC4CC4)c3)C2)c1` was tested, and the activity % (negative = inhibition) was inactive: 2.87%. In the case of `CN1C(=O)C2(CCN(Cc3cccn3C)C2)c2ccccc21` (stereo not given), the activity % (negative = inhibition) is reported as inactive: 27.3% [at 57.5 µM]. For `Cn1ccnc1CN1CCOC[C@H](Oc2ccc(C(F)(F)F)cc2)C1`, the activity % (negative = inhibition) was inactive: 20.7% [at 57.5 µM]. In the case of `O=C([C@@H]1C[C@H](Oc2cccnc2)CN1S(=O)(=O)c1cccs1)N1CCCC1`, the activity % (negative = inhibition) is reported as inactive: 4.57%. In the case of `CS(=O)(=O)c1ccc(N2CCN(CC3(O)CNCCOC3)CC2)c(F)c1` (stereo not given), the activity % (negative = inhibition) is reported as inactive: 12.2%. `O=C(c1nnc(COc2ccc3c(c2)OCO3)n1Cc1ccccc1)N1CCC[C@@H]1c1ccc(Br)cc1` was tested, and the activity % (negative = inhibition) was inactive: -0.303%. `CN1C[C@@H](NC(=O)NC2CCCCC2)C[C@H]1c1nc(-c2cccnc2)no1` was tested, and the activity % (negative = inhibition) was inactive: 8.16% [at 57.5 µM]. `O=C(C1CCCC1)N1CCC(C(=O)N2CCC(c3nc4ccncc4[nH]3)C2)CC1` (stereo not given) was tested, and the activity % (negative = inhibition) was inactive: 1.95%. In the case of `CN(C)S(=O)(=O)N1CCc2c(nc3cc(-c4ccccc4)[nH]n3c2=O)C1`, the activity % (negative = inhibition) is reported as inactive: 14.3%. In the case of `CN1CCN(c2ccc(-c3nccc4c(=O)cc(N(C)C5CCOCC5)oc34)cn2)CC1`, the activity % (negative = inhibition) is reported as inactive: 11.5% [at 57.5 µM]. With `CCN(CC)C(=O)[C@@H]1CCCN1C1(C(=O)NC)COC1` the activity % (negative = inhibition) was inactive: 2.09% [at 77.1 µM]. `CCc1nc2c(=O)n(CC(=O)NCCC3=CCCCC3)nc(C)c2s1` was tested, and the activity % (negative = inhibition) was inactive: 11.1%. `CN(C)[C@@H]1[C@@H](NS(=O)(=O)c2cccc3c2OCCO3)[C@H]2CCO[C@H]21` was tested, and the activity % (negative = inhibition) was inactive: 18.7%. `COc1cc(F)ccc1-c1nc(-c2c(C)noc2C)cc2[nH]c(C)cc12` was tested, and the activity % (negative = inhibition) was inactive: 4.34% [at 57.5 µM]. For `CN1CCN(C(=O)c2nn(C)c3c2CCCC3)CC12CCNC(=O)CC2` (stereo not given), the activity % (negative = inhibition) was inactive: 10.2%. For `Cc1ccc(-c2nc(CN3CCCC3=O)no2)cc1`, the activity % (negative = inhibition) was inactive: 6.38%. In the case of `Cc1nc2c(c(NC3CC3)n1)CCN(C(=O)CCc1cccnc1)CC2`, the activity % (negative = inhibition) is reported as inactive: 4.41%. With `CCCn1cc(S(=O)(=O)N2C[C@H](C3CC3)[C@@H](N)C2)cn1` the activity % (negative = inhibition) was inactive: -2.68%. `O=C(C1CC1)N(C1CCOCC1)C1CCN(S(=O)(=O)C2CC2)CC1` was tested, and the activity % (negative = inhibition) was inactive: 11.3%. With `CCc1noc(-c2cn(C3CCN(C(=O)c4cc(Cl)ccc4F)CC3)nn2)n1` the activity % (negative = inhibition) was inactive: 6.36%. For `Cn1cc(C(=O)NC2CC(c3cc(N4CCOCC4)ncn3)C2)cn1` (stereo not given), the activity % (negative = inhibition) was inactive: 0.983%. With `Cc1ncc(C(=O)N[C@H]2CC[C@H]2NC2CCCC2)c(-c2ccccc2)n1` the activity % (negative = inhibition) was inactive: -0.554%. For `CC(C)c1ccccc1NC(=O)N1CCOC(C(F)(F)F)C1` (stereo not given), the activity % (negative = inhibition) was inactive: -1.86%. In the case of `CCCN1CC2(CCN(C)CC2)CC1C(=O)N(C)Cc1nnc(C)o1` (stereo not given), the activity % (negative = inhibition) is reported as inactive: 11.7%. `O=c1cc(N2CCOCC2)oc2c(-c3ccccc3O)nccc12` was tested, and the activity % (negative = inhibition) was inactive: 23.4% [at 57.5 µM]. With `C=CCn1nc(C)c(CN2CC[C@H](N3CCN(C)CC3)[C@H](CCC(=O)O)C2)c1C` the activity % (negative = inhibition) was inactive: 10.5%. For `COc1nc2nc(CCc3ccccc3)n(C)c2cc1-c1ccnn1C`, the activity % (negative = inhibition) was inactive: -2.8% [at 57.5 µM]. In the case of `CNC(=O)[C@@H]1CN(C(=O)Cc2c[nH]c3ccccc23)C[C@H]1COC`, the activity % (negative = inhibition) is reported as inactive: 17.3%. In the case of `O=C(c1ccc(F)c(Cl)c1)N1C[C@@H](CO)[C@H](c2ccccn2)C1`, the activity % (negative = inhibition) is reported as inactive: -2.92%. In the case of `CN(c1ncccc1CNC(=O)C1CCOCC1)C1CCCCC1`, the activity % (negative = inhibition) is reported as inactive: -0.675%. With `COCCc1noc([C@@H]2CC(F)(F)CN2C(=O)c2ccoc2)n1` the activity % (negative = inhibition) was inactive: 10.5%. `COCc1ncc(C)n1C1CCN(C(=O)Cc2cccc(F)c2)CC1` was tested, and the activity % (negative = inhibition) was inactive: -1.37%. For `CC1=C[C@@H](CNC(=O)CCCC(=O)O)[C@H](C(C)C)C[C@H]1Cc1nc2ccccc2n1C`, the activity % (negative = inhibition) was inactive: 1.42% [at 57.5 µM]. With `COc1ccc(-c2ccc3nnc(CNC(=O)CCc4ccccc4)n3n2)cc1` the activity % (negative = inhibition) was inactive: 6.6%. `FC(F)(F)c1ccc(CN2CCCC3(CC(Cc4ccccc4)=NO3)C2)cc1` (stereo not given) was tested, and the activity % (negative = inhibition) was inactive: 1.91%. `Cc1nc(CC(=O)NCc2cccnc2N2CCOCC2)cs1` was tested, and the activity % (negative = inhibition) was inactive: -0.451%. With `COCC(=O)N[C@@H]1CN(Cc2ccc(C)s2)CC[C@@H]1c1n[nH]c(C)n1` the activity % (negative = inhibition) was inactive: 1.72%. With `OCc1nc(C2CCNC2)no1` (stereo not given) the activity % (negative = inhibition) was inactive: -2.89%. For `Cc1ccc(C(=O)NCCn2c(C)cnc2C)s1`, the activity % (negative = inhibition) was inactive: 0.905%. For `C#CCNC(=O)[C@@H]1CCCN1[C@@H](C(=O)NC)c1ccccc1`, the activity % (negative = inhibition) was inactive: 9.17% [at 57.5 µM]. In the case of `COc1ccc(CCNC(=O)CC(c2cccc(F)c2)c2cn(C)c3ccccc23)cc1OC` (stereo not given), the activity % (negative = inhibition) is reported as inactive: -0.357%. In the case of `COc1cc(C(=O)NCCCn2ccnn2)ccc1OC1CCN(C(C)=O)CC1`, the activity % (negative = inhibition) is reported as inactive: 7.31%. For `O=S(=O)(c1ccc2c(c1)CCC2)N1CCC(Cc2nc(-c3ccncc3)n[nH]2)C1` (stereo not given), the activity % (negative = inhibition) was inactive: -3.42%. `Cn1cc(CN2CCN(c3cnccn3)CC2)c(-c2ccc(C3CCCCC3)cc2)n1` was tested, and the activity % (negative = inhibition) was inactive: 14.1%. With `CCCCc1cn(CC2CCN(C(=O)c3ccsc3)CC2)nn1` the activity % (negative = inhibition) was inactive: 2.84%. `Cc1ccc(CN2C(=O)NC3(CCN(C(=O)c4cccc(Cl)c4)C3)C2=O)cc1` (stereo not given) was tested, and the activity % (negative = inhibition) was inactive: 5.78%. For `O=C(C1CC1)N1CCN2C(=O)N(C3CCCCC3)C[C@H]2C1`, the activity % (negative = inhibition) was inactive: 10.7% [at 77.1 µM]. In the case of `O=C(NCc1ccnc2[nH]ccc12)c1cncc(Br)c1`, the activity % (negative = inhibition) is reported as inactive: 59.2% [at 57.5 µM]. For `COc1ccc(CC(=O)Nc2ccc3c(c2)CN(CCOc2ccccc2)C(=O)C(C)O3)cc1` (stereo not given), the activity % (negative = inhibition) was inactive: 2.19%. In the case of `O=Cc1ccc(-c2cc(C(F)(F)F)ccc2Cl)cc1`, the activity % (negative = inhibition) is reported as inactive: -16% [at 57.5 µM]. `CCn1ccnc1CN(C)C(=O)c1cc(COc2ccccc2F)[nH]n1` was tested, and the activity % (negative = inhibition) was inactive: -14.9%. In the case of `COc1ccnc(CN2C(=O)NC(CCc3ccccc3)(C3CCNCC3)C2=O)c1` (stereo not given), the activity % (negative = inhibition) is reported as inactive: 1.39%. `CC(C)(O)C#Cc1ccc(-c2nccn2-c2cccc(-n3cncn3)c2)cc1` was tested, and the activity % (negative = inhibition) was inactive: 74.2%. `CC(=O)NCC(=O)N1CCC(c2cc(-c3ccc(F)cc3)n[nH]2)CC1` was tested, and the activity % (negative = inhibition) was inactive: 17.2%. For `Cn1c([C@H]2CCN(Cc3ccc4c(c3)OCO4)C2)nc2ccccc21`, the activity % (negative = inhibition) was inactive: 16.2% [at 57.5 µM]. `O=C(NC1CCCCC1)N1CCCCCC1c1nc(-c2ccncc2)no1` (stereo not given) was tested, and the activity % (negative = inhibition) was inactive: -2.94%. `CN(C)c1ccc(-c2nnc([C@H]3CCN(Cc4ccccn4)C3)o2)cc1` was tested, and the activity % (negative = inhibition) was inactive: 99.6% [at 57.5 µM]. `Cc1occc1C(=O)N1CCC(CCC(=O)N2CCN(c3ccccc3)CC2)CC1` was tested, and the activity % (negative = inhibition) was inactive: 56.9%. `O=C(NCCc1ccc(Cl)cc1)c1cc(-c2cccs2)c2cccn2n1` was tested, and the activity % (negative = inhibition) was inactive: 1.3%. In the case of `O=C(CCc1nc(-c2cccnn2)no1)NC1CCCCCCC1`, the activity % (negative = inhibition) is reported as inactive: 9.7%. With `Cc1ccc2c(C(=O)NCc3ccc(Cl)cc3)cnn2c1` the activity % (negative = inhibition) was inactive: 8.71% [at 57.5 µM]. With `O=C(Nc1ccc2c(c1)OCCO2)N1CCCC(CN2CCOCC2)CC1` (stereo not given) the activity % (negative = inhibition) was inactive: -2.22%. With `CCCn1c(C)cnc1CC1CCN(C(=O)NCc2ccc(OC)cc2)C1` (stereo not given) the activity % (negative = inhibition) was inactive: -7.23%. For `O=C(O)CCC(=O)N1Cc2ccccc2CC2(CCCN(CC3CCOCC3)C2)C1` (stereo not given), the activity % (negative = inhibition) was inactive: 6.2%. `COCCN1CC2(CCOC2)N(C2CCN(C(=O)c3ccc(OC)cc3)CC2)C1=O` (stereo not given) was tested, and the activity % (negative = inhibition) was inactive: -0.219%. In the case of `CN(C)C(=O)c1nc2sccn2c1-c1ccc(C(F)(F)F)cc1`, the activity % (negative = inhibition) is reported as inactive: 15.4%. `Cc1nn(C)c(C)c1CCC(=O)N1CCC(C2CCN(S(C)(=O)=O)CC2)C1` (stereo not given) was tested, and the activity % (negative = inhibition) was inactive: 8.27%.
